The values below come from PubChem BioAssay AID248 (DTP/NCI, 2004).

The list is a part of this screen's results and no random one: it is rich in T/C values a quarter to a half above the control, in often repeated tests (any T/C) and in doses without a T/C. Other doses and runs of a compound stand elsewhere. T/C gives the treated animals as a percentage of the vehicle group. Some entries give survivors of the animals treated and no T/C: the source holds a T/C of zero for them, seemingly a mark for toxic or unscored doses. Some survivor counts are full or nearly so, which does not show that the dose was tolerated: survival well below the control is almost never listed, so the zero probably covers shortened survival too. Counts of survivors are from the toxicity check (mostly the fifth day) where no day follows; animals may have died later. Schedule codes are those of the source, read here as Q, the interval in days (D) or hours (H), X, the number of doses. Some schedule codes hold Z or #, which are not explained here. For survival time, this PubChem deposit counts one and a half times the control or more as active, and values a quarter to a half above the control carry no call in these data; other NCI protocols may use other cut-offs. Some entries hold several experiments; the values are given in rising order.

The test system of the assay is L1210 leukemia ip in BDF1 mice, survival T/C. Nature of the assay: NCI In Vivo Anticancer Drug Screen. Data for tumor model L1210 Leukemia (intraperitoneal) in B6D2F1 (BDF1) mice. To be noted: T/C endpoint: mean survival time, higher T/C = longer survival.
The mark [1] stands for this setting: dose: 100.0 mg/kg/injection, schedule: Q01DX009 (ip), vehicle: Klucel (hydroxypropylcellulose) (HPC).
Setting [2] is: dose: 200.0 mg/kg/injection, schedule: Q01DX009 (ip), vehicle: Klucel (hydroxypropylcellulose) (HPC).
Where [3] appears, read: dose: 200.0 mg/kg/injection, schedule: Q04DX003 (ip), vehicle: saline with Tween-80.
[4] abbreviates: dose: 400.0 mg/kg/injection, schedule: Q04DX003 (ip), vehicle: saline with Tween-80.
Setting [5] is: dose: 400.0 mg/kg/injection, schedule: Q04DX002 (ip), vehicle: Klucel (hydroxypropylcellulose) (HPC).
[6] abbreviates: dose: 400.0 mg/kg/injection, schedule: Q04DX003 (ip), vehicle: Klucel (hydroxypropylcellulose) (HPC).

Turning to `C1CN1P1(N2CC2)=NP(N2CC2)(N2CC2)=NP(N2CC2)(N2CC2)=NP(N2CC2)(N2CC2)=N1`, the T/C reads like this: (dose: 3.12 mg/kg/injection, schedule: Q01DX009 (ip), vehicle: saline) 127 % of control; (dose: 6.25 mg/kg/injection, schedule: Q01DX009 (ip), vehicle: saline) 138 % of control; (dose: 10.0 mg/kg/injection, schedule: Q04DX003 (ip), vehicle: saline) 129 % of control; (dose: 12.5 mg/kg/injection, schedule: Q01DX009 (ip), vehicle: saline) 128 % of control; (dose: 15.0 mg/kg/injection, schedule: Q04DX003 (ip), vehicle: saline) 125 % of control; (dose: 20.0 mg/kg/injection, schedule: Q01DX001 (ip), vehicle: saline) 134 % of control. Further, the T/C (dose: 20.0 mg/kg/injection, schedule: Q04DX003 (ip), vehicle: saline) is 140 % of control and the T/C (dose: 40.0 mg/kg/injection, schedule: Q04DX003 (ip), vehicle: saline) was 145 % of control. The survivor count is, setting by setting: (dose: 25.0 mg/kg/injection, schedule: Q01DX009 (ip), vehicle: saline) 4 of 6; (dose: 80.0 mg/kg/injection, schedule: Q01DX001 (ip), vehicle: saline) 5 of 6; (dose: 80.0 mg/kg/injection, schedule: Q04DX003 (ip), vehicle: saline) 4 of 6; (dose: 160.0 mg/kg/injection, schedule: Q04DX003 (ip), vehicle: saline) 5 of 6.
Regarding `NNC(=O)C12CCCCC1CCC2` (stereo not drawn), the survivor count (dose: 200.0 mg/kg/injection, schedule: Q01DX009 (ip), vehicle: acetone) is reported as 6 of 6.
As to `CC1NNC(=O)C1(Br)Br` (stereo not drawn), the survivor count is given as 0 of 3 (dose: 50.0 mg/kg/injection, schedule: Q01DX009 (ip), vehicle: gum acacia); 0 of 3 (dose: 100.0 mg/kg/injection, schedule: Q01DX009 (ip), vehicle: gum acacia); 0 of 3 (dose: 200.0 mg/kg/injection, schedule: Q01DX009 (ip), vehicle: gum acacia).
In the case of `COc1cc(C=C(C#N)C#N)ccc1O`, the survivor count is 2 of 6 (dose: 50.0 mg/kg/injection, schedule: Q01DX009 (ip), vehicle: Klucel (hydroxypropylcellulose) (HPC)); 0 of 6 under setting [1]; 0 of 6 under setting [2]; 0 of 6 (dose: 400.0 mg/kg/injection, schedule: Q01DX009 (ip), vehicle: Klucel (hydroxypropylcellulose) (HPC)).
Turning to `CC(C)C(CN)(CCN(C)C)c1cccc2ccccc12` (stereo not drawn), the survivor count was 5 of 6 under setting [3] and 0 of 6 under setting [4].
`O=C(C[N+]12CN3CN(CN(C3)C1)C2)c1ccc(Cl)cc1`: the survivor count (dose: 219.0 mg/kg/injection, schedule: Q01DX Z (ip), vehicle: carboxymethylcellulose (CMC)) is 2 of 6.
With `O=C(CN1CC1)NCc1ccc(CNC(=O)CN2CC2)cc1`, the T/C runs as follows: (dose: 3.0 mg/kg/injection, schedule: Q01DX009 (ip), vehicle: carboxymethylcellulose (CMC)) 137 % of control; (dose: 11.1 mg/kg/injection, schedule: Q01DX001 (ip), vehicle: carboxymethylcellulose (CMC)) 125 % of control; (dose: 12.5 mg/kg/injection, schedule: Q01DX001 (ip), vehicle: carboxymethylcellulose (CMC)) 142 % of control; (dose: 16.6 mg/kg/injection, schedule: Q01DX001 (ip), vehicle: carboxymethylcellulose (CMC), evaluated on day 30) 129 % of control; (dose: 16.6 mg/kg/injection, schedule: Q01DX001 (ip), vehicle: carboxymethylcellulose (CMC), run until all animals had died) 128 % of control; (dose: 25.0 mg/kg/injection, schedule: Q01DX001 (ip), vehicle: carboxymethylcellulose (CMC), evaluated on day 30) 129 % of control. Moreover, the T/C runs as follows: (dose: 25.0 mg/kg/injection, schedule: Q01DX001 (ip), vehicle: carboxymethylcellulose (CMC), run until all animals had died) 130 and 146 % of control; (dose: 50.0 mg/kg/injection, schedule: Q01DX001 (ip), vehicle: carboxymethylcellulose (CMC)) 142 % of control. In addition, the survivor count (dose: 37.5 mg/kg/injection, schedule: Q01DX009 (ip), vehicle: carboxymethylcellulose (CMC)) is recorded as 6 of 6 and the survivor count (dose: 50.0 mg/kg/injection, schedule: Q01DX009 (ip), vehicle: carboxymethylcellulose (CMC)) is reported as 6 of 6.
As for `CCCCCCCCCCCCCCCCCC(=O)N/N=C/C=C/c1ccccc1`, under setting [1], the survivor count is 5 of 6.
With `O=C(Nc1ccc(Cl)cc1[N+](=O)[O-])Oc1ccc(Cl)cc1Cc1ccccc1`, the survivor count under setting [3] is 6 of 6.
Take `C[N+](C)(C)c1ccc(/C=C2/CCCCC2=O)cc1`: the survivor count (dose: 100.0 mg/kg/injection, schedule: Q04DX003 (ip), vehicle: saline) was 2 of 6; the survivor count (dose: 200.0 mg/kg/injection, schedule: Q04DX003 (ip), vehicle: saline) is given as 0 of 6; the survivor count (dose: 400.0 mg/kg/injection, schedule: Q04DX003 (ip), vehicle: saline) was 0 of 6.
Consider `NNS(=O)(=O)CCCCCCCCCCC(=O)O`, for which the survivor count under setting [4] was 6 of 6.
Still for that read-out and setting: the figure for `COC(=O)c1ccccc1C(=O)O` is 1 of 6.
`C=C1CC(c2ccc(S(=O)(=O)N3CCOCC3)cc2)OC1=O` (stereo not drawn): the survivor count under setting [5] is on record as 0 of 3.
With `CN(C)C/C(=C\c1ccccc1)C(=O)c1ccccc1`, the survivor count (dose: 200.0 mg/kg/injection, schedule: Q04DX003 (ip), vehicle: other) is 5 of 6 and the survivor count (dose: 400.0 mg/kg/injection, schedule: Q04DX003 (ip), vehicle: other) is on record as 0 of 6.
Consider `NC(=O)CNC(=O)C(CSCc1ccccc1)NC(=O)OCc1ccccc1` (stereo not drawn), for which the survivor count was 6 of 6 (dose: 200.0 mg/kg/injection, schedule: Q04DX003 (ip), vehicle: Klucel (hydroxypropylcellulose) (HPC)) and 6 of 6 under setting [6].
`Nc1nc2ncc(CNc3ccc(CC(=O)NC(CCC(=O)O)C(=O)O)cc3)nc2c(=O)[nH]1` (stereo not drawn): the survivor count (dose: 300.0 mg/kg/injection, schedule: Q01DX001 (ip), vehicle: saline) is 0 of 6.
On to `CSC(=N)c1cccc(OCCCOc2ccccc2)c1`, for which the survivor count is on record as 6 of 6 (dose: 100.0 mg/kg/injection, schedule: Q01DX009 (ip), vehicle: saline with Tween-80) and 1 of 6 (dose: 400.0 mg/kg/injection, schedule: Q01DX009 (ip), vehicle: saline with Tween-80).
Consider `N=C(N)SCc1ccc(Cl)cc1N`, for which the survivor count by setting is: (dose: 100.0 mg/kg/injection, schedule: Q04DX002 (ip), vehicle: Klucel (hydroxypropylcellulose) (HPC)) 2 of 3; (dose: 200.0 mg/kg/injection, schedule: Q04DX002 (ip), vehicle: Klucel (hydroxypropylcellulose) (HPC)) 0 of 3; under setting [5], 0 of 3.
In the case of `O=C(c1ccc(C(=O)N2CC2)cc1)N1CC1`, the survivor count runs as follows: (dose: 40.0 mg/kg/injection, schedule: Q01DX001 (ip), vehicle: carboxymethylcellulose (CMC)) 3 of 6; (dose: 80.0 mg/kg/injection, schedule: Q01DX001 (ip), vehicle: carboxymethylcellulose (CMC)) 3 of 6; (dose: 160.0 mg/kg/injection, schedule: Q01DX001 (ip), vehicle: carboxymethylcellulose (CMC)) 0 of 6.
Take `CC1(C)N=C(N)N=C(N)N1c1ccc(OCCCOc2ccccc2)c(Cl)c1`: the survivor count by setting is: under setting [2], 2 of 6; under setting [6], 1 of 6.
Regarding `CC1CCCCN1CC(Cl)(Cl)Cl` (stereo not drawn), the survivor count (dose: 400.0 mg/kg/injection, schedule: Q01DX001 (ip), vehicle: saline) is listed as 0 of 6.
Take `O=C(NCCCCCCCCCNC(=O)Nc1ccc(C2=NCCCN2)cc1)Nc1ccc(C2=NCCCN2)cc1`: the survivor count (dose: 30.0 mg/kg/injection, schedule: Q01DX Z (ip), vehicle: carboxymethylcellulose (CMC)) is given as 6 of 6.
